These are yes or no findings as the source states them, for the method shown. For part of these data: Binding seen in cells or lysates may run through a third protein. Some results given as binding are weak or reduced against the parent protein; the word gives no strength. Sequences can lack the tags named with a protein.
Legend:
[1] = target: T1, TAP-HOG1 fusion protein with the full N-terminal TAP tag (71 kDa), in transgenic Arabidopsis protein extract (Arabidopsis thaliana) (UniProt O23255); experiment: TAP pull-down from plant total protein extract, SDS-PAGE, N-terminal sequencing
T1 sequence: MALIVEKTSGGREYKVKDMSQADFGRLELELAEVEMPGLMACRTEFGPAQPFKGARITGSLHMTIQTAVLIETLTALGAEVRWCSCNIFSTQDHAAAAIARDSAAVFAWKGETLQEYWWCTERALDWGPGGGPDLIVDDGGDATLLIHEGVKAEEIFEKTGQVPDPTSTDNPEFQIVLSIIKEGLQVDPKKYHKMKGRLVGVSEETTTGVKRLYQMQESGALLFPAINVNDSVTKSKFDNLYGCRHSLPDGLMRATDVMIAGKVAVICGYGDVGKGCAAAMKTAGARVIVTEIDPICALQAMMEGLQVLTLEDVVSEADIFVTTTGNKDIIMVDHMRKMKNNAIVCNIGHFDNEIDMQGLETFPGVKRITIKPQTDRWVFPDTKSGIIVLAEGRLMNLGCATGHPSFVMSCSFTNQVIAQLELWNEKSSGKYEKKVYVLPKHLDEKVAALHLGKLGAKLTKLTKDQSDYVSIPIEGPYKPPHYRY

The chains behind the UniProt entries cited, without tags or fusion partners. Where a name states a change or a piece, a line headed by the entry shows the natural chain unless it says otherwise.
UniProt O23255: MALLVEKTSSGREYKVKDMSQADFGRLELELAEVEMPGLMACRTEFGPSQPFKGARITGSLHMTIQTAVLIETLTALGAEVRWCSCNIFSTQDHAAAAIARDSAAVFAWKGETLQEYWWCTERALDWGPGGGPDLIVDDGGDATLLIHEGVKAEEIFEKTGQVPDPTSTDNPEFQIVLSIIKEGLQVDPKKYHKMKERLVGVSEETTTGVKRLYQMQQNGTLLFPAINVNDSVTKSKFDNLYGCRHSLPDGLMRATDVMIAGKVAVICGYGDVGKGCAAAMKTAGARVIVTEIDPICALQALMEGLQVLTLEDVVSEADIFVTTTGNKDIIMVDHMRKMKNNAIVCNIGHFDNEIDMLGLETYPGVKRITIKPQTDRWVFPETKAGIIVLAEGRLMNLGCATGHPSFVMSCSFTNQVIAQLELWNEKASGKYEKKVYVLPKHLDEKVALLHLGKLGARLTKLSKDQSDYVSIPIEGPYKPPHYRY

[2] = target: T1, TAP-HOG1 fusion protein with the full N-terminal TAP tag (71 kDa), in transgenic Arabidopsis protein extract (Arabidopsis thaliana); experiment: TAP tag purification of the protein complex from plants
[3] = target: T1, TAP-HOG1 fusion protein with the full N-terminal TAP tag (71 kDa), in transgenic Arabidopsis protein extract (Arabidopsis thaliana); experiment: TAP pull-down, SDS-PAGE, N-terminal sequencing

- binding [1]: binds
- binding [2]: binds
- binding [3]: binds
B1: endogenous AHP1 co-purified from Arabidopsis total protein extract (approximately 24 kDa band) (protein, Arabidopsis thaliana, UniProt Q9ZNV9 1-154, looked up)
chain: MDLVQKQKSLQDYTKSLFLEGILDSQFLQLQQLQDESNPDFVSQVVTLFFQDSDRILNDLSLSLDQQVVDFKKVDPHVHQLKGSSSSIGAQRVKNACVVFRSFCEQQNVEACHRCLQQVKQEYYLVKNRLETLFKLEQQIVASGGMIPAVELGF

From patent US9290777B2, “Putative cytokinin receptor and methods for use thereof” (NATIONAL UNIVERSITY OF SINGAPORE, priority 2007, dated 2016)
